Measurements as given in PMC3603897.
The exact form of at least one protein or probe is not confirmed. Results from cells or extracts need not show a direct contact.

Test system: STAT1-containing aberrant complex (T. gondii + IFNγ) (Mus musculus (BMDC))
Test: EMSA with supershift
Conditions: T. gondii RH then IFNγ, aberrant complex increases over time, peak at 22 h; EMSA: LightShift binding buffer, 200 fmol probe, 1 ug poly(I)-poly(C), 2.5% glycerol, 50 mM KCl, 1 mM DTT, 1 mM EDTA, 20 min; protein in an extract; label: 5' biotin on both strands

## CATTTCGGGGAAATCGATC (double strand) [Irf-1 promoter GAS probe]
  binding result: binds
